The assay has as its target T1, cyno CCL17 (Macaca fascicularis (cyno)).
T1 sequence: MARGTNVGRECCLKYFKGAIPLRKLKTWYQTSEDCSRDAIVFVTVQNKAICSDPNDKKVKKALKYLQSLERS
Description: ranking ELISA of Fab variants with bt-cyno CCL17. In general terms: In an ELISA, binding on a coated surface is turned into a signal by an enzyme label.

Changes are numbered by the printed parent chain. Results are given in words; binding and its absence hold for the method and conditions named. Some binding calls cover weakened binding; strength is not graded here.

B1: C17F319 variant W→T at HCDR3 position 100a (Kabat) (Fab, V domains shown)
VH: EVQLVQSGAEVKKPGESLKISCKGSGYSFTSYWIGWVRQMPGKGLEWMGIIDPSDSDTRYSPSFQGQVTISADKSISTAYLQWSSLKASDTAMYYCARVGPADVTDSFDYWGQGTLVTVSS
VL: DIVMTQSPDSLAVSLGERATINCKSSQSVLLSPWNSNQLAWYQQKPGQPPKLLIYGASTRESGVPDRFSGSGSGTDFTLTISSLQAEDVAVYYCQQYYLIPSTFGQGTKVEIK
Regarding B1, the binding entry is “binds”.

B2: C17F319 variant W→R at HCDR3 position 100a (Kabat) (Fab, V domains shown)
VH: B1 VH with T105R
VL: B1 VL
As to B2, the binding entry is “binds”.

The values above are taken from US20220348647A1.
